Experimental data reported in article PMC7461561.
Results are given in words; binding and its absence hold for the method and conditions named. Binding seen in cells or lysates may run through a third protein. Some results given as binding are weak or reduced against the parent protein; the word gives no strength.

Chains of the proteins cited; added tags and fusions are not shown. Residues count along the entry.
UniProt Q8K1B8: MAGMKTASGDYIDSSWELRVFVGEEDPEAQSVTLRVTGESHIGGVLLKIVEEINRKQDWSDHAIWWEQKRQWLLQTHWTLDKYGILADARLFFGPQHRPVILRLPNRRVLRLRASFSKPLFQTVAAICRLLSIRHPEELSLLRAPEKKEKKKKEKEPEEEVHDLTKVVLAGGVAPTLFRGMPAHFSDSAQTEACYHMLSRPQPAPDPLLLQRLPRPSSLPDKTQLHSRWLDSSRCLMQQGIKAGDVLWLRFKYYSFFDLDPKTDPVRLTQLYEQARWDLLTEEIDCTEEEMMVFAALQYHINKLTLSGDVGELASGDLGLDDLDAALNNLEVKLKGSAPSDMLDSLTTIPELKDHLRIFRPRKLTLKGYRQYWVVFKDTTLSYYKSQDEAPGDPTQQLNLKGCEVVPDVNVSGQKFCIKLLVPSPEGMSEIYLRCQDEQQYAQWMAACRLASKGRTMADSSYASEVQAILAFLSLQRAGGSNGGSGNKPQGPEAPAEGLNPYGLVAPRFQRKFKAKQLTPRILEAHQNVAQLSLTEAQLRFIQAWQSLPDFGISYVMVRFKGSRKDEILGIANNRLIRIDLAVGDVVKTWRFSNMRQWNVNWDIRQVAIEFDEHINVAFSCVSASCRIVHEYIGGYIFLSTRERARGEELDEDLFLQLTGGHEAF
UniProt Q8BMS1, residues 37-763: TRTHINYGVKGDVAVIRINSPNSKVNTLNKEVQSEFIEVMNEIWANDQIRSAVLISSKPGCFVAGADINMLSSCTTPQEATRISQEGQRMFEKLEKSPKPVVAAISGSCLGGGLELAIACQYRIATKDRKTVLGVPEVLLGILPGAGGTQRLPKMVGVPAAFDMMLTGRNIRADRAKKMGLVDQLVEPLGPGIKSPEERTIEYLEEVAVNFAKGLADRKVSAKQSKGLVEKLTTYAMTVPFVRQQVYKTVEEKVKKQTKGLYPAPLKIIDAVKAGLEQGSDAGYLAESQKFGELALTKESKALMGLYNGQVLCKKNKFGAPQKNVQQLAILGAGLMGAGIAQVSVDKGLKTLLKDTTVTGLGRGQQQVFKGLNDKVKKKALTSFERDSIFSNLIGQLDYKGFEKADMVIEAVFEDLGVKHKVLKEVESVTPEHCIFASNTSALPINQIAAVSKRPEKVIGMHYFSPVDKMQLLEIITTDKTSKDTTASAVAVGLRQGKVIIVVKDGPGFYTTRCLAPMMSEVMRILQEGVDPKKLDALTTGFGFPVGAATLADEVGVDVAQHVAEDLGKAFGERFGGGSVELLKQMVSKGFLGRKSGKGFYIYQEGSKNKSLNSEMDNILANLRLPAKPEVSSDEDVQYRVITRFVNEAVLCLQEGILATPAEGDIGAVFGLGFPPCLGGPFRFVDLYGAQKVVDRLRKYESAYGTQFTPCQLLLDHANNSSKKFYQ
UniProt O60260: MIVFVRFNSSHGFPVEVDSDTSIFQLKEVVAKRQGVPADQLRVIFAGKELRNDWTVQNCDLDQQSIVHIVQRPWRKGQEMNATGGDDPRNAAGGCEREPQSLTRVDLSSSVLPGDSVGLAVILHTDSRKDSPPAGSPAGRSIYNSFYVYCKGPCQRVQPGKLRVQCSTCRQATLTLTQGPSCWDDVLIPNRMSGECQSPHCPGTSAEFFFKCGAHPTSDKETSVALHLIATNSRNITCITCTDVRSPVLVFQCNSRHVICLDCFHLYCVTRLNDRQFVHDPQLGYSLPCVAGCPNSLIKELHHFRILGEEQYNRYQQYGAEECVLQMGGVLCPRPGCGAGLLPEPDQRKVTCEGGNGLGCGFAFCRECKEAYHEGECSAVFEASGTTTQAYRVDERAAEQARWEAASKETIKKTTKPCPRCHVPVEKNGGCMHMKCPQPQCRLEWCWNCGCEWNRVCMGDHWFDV
UniProt Q86UX7: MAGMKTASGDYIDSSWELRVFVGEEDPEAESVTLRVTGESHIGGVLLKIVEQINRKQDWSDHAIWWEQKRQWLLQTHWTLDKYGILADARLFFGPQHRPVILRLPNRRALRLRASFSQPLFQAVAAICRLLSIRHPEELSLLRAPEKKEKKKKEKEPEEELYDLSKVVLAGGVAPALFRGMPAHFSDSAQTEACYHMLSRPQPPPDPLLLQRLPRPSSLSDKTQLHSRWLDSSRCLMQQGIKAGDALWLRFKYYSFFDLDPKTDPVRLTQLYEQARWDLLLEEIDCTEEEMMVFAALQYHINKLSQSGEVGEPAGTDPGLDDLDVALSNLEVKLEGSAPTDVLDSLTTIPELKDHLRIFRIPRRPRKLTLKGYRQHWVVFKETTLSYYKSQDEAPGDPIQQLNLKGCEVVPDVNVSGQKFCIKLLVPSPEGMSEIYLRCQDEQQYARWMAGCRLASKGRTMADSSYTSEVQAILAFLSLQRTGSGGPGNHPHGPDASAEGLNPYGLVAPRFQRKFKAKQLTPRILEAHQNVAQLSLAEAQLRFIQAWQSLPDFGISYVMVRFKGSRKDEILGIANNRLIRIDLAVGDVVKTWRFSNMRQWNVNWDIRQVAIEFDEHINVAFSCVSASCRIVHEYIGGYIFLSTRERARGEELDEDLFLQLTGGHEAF
UniProt Q13418: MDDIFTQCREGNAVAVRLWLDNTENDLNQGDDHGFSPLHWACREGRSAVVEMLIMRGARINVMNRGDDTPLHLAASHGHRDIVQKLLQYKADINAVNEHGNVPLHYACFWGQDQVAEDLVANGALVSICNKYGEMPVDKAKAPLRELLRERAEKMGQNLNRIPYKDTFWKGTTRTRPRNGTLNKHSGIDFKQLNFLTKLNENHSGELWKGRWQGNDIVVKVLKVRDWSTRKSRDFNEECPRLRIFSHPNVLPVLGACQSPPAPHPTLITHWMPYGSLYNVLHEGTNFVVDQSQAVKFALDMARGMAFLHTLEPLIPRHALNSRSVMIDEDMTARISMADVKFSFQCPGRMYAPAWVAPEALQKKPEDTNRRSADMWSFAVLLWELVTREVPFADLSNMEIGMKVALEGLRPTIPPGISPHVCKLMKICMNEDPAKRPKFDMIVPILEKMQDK
UniProt P07237, residues 18-508: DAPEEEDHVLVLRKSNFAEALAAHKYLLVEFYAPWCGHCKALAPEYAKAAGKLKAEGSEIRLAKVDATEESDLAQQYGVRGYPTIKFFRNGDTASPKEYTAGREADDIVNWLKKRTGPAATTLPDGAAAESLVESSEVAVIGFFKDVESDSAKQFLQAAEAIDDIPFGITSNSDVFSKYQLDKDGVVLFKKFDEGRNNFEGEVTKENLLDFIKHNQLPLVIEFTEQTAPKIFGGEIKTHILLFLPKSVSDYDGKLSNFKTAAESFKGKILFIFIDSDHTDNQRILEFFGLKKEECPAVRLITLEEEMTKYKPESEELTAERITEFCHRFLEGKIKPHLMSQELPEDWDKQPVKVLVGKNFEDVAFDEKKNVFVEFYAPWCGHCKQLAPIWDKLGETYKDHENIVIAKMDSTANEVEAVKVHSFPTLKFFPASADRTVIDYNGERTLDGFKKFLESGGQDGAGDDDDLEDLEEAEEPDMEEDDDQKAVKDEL
UniProt P40939, residues 37-763: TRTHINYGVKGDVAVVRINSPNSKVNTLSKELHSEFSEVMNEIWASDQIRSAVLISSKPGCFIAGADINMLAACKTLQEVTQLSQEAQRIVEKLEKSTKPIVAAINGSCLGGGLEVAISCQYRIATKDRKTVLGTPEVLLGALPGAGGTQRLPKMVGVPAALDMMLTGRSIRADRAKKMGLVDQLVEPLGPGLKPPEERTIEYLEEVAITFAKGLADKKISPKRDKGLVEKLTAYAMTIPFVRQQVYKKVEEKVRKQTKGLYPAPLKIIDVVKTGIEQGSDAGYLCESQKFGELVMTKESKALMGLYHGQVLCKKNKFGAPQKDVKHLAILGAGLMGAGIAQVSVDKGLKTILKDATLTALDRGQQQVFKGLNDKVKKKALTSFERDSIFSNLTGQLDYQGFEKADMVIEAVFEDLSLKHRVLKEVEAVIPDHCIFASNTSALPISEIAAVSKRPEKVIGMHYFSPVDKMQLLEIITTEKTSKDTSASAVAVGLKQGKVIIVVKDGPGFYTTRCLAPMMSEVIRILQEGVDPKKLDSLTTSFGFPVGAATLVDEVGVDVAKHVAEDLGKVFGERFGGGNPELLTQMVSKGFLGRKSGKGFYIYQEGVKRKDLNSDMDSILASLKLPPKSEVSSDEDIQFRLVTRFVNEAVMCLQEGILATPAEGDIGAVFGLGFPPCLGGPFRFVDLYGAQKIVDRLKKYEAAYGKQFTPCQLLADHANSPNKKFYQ

T1: Parkin (murine platelets) (mouse (endogenous in platelets)) (UniProt Q9WVS6)
T1 sequence: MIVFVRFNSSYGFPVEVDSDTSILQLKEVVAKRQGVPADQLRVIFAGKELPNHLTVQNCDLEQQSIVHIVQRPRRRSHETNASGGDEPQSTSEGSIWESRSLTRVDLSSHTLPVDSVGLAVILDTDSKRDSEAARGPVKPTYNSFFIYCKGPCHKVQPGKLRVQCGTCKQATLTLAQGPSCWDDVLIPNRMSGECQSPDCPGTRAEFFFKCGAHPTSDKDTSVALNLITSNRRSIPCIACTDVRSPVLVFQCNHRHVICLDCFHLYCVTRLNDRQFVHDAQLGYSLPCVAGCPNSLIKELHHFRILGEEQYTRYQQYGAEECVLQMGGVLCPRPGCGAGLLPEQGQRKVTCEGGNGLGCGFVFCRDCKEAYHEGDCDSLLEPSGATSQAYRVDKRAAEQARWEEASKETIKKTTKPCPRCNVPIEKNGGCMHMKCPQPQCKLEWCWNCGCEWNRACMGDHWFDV

B1: LAMP1 (murine platelets) (protein, UniProt P11438 25-406)
chain: LFEVKNNGTTCIMASFSASFLTTYETANGSQIVNISLPASAEVLKNGSSCGKENVSDPSLTITFGRGYLLTLNFTKNTTRYSVQHMYFTYNLSDTEHFPNAISKEIYTMDSTTDIKADINKAYRCVSDIRVYMKNVTVVLRDATIQAYLSSGNFSKEETHCTQDGPSPTTGPPSPSPPLVPTNPTVSKYNVTGNNGTCLLASMALQLNITYLKKDNKTVTRAFNISPNDTSSGSCGINLVTLKVENKNRALELQFGMNASSSLFFLQGVRLNMTLPDALVPTFSISNHSLKALQATVGNSYKCNTEEHIFVSKMLSLNVFSVQVQAFKVDSDRFGSVEECVQDGNNMLIPIAVGGALAGLVLIVLIAYLIGRKRSHAGYQTI
B2: Prohibitin (murine platelets) (protein, UniProt P67778 1-272)
chain: MAAKVFESIGKFGLALAVAGGVVNSALYNVDAGHRAVIFDRFRGVQDIVVGEGTHFLIPWVQKPIIFDCRSRPRNVPVITGSKDLQNVNITLRILFRPVASQLPRIYTSIGEDYDERVLPSITTEILKSVVARFDAGELITQRELVSRQVSDDLTERAATFGLILDDVSLTHLTFGKEFTEAVEAKQVAQQEAERARFVVEKAEQQKKAAIISAEGDSKAAELIANSLATAGDGLIELRKLEAAEDIAYQLSRSRNITYLPAGQSVLLQLPQ

Target: T1, Parkin (murine platelets) (mouse (endogenous in platelets))
Experiment: co-IP; 500 ug pooled murine platelet lysates (3 WT, 5 DM) with specific antibody overnight at 4 °C, protein A/G sepharose beads, Western blot, 10% input

**Q.** “FERMT3 (murine platelets) (from UniProt Q8K1B8 1-665)” was tested. Which binding did it give?
**A.** binds

**Q.** “HADHA (murine platelets) (from UniProt Q8BMS1 37-763)” was tested. Which binding did it give?
**A.** binds

**Q.** Which binding does the source give for “VCP/p97 (murine platelets) (from UniProt Q01853 1-806)” here?
**A.** binds

**Q.** How did the binding turn out when B1 was run?
**A.** binds

**Q.** Which binding does the source give for B2 here?
**A.** binds

Target: Parkin (human (endogenous in platelets)) (UniProt O60260)
Experiment: co-IP; 500 ug pooled human platelet lysates (4 HC, 5 DM1, 6 DM2) with 1 ug specific antibody overnight at 4 °C, protein A/G sepharose beads, Western blot, 10% input

**Q.** With “Fermitin family homolog 3 (from UniProt Q86UX7 1-667)” as the molecule, how does the binding read?
**A.** binds

**Q.** For “Integrin-linked protein kinase (from UniProt Q13418 1-452)”, which binding is on record?
**A.** binds

**Q.** How did the binding turn out when “Protein disulfide-isomerase (from UniProt P07237 18-508)” was run?
**A.** binds

**Q.** For “Transitional endoplasmic reticulum ATPase (from UniProt P55072 1-806)”, which binding is on record?
**A.** binds

**Q.** How did the binding turn out when “Trifunctional enzyme subunit alpha, mitochondrial (from UniProt P40939 37-763)” was run?
**A.** binds
